Laboratory results taken from article PMC3583217.
For at least one entry, the source does not settle the construct or the ends of the probe. For part of these data: The comparison behind a weaker result is the experiment's own reference, which may not be listed here. For part of these data: Where cells or extracts were used, other partners may take part. For part of these data: At least one verdict was read from the data and is not stated in words by the source.

Sequences of proteins named here, by UniProt entry; tags and fusion partners are left off. Residues count along the entry.
UniProt P02769, 25-607: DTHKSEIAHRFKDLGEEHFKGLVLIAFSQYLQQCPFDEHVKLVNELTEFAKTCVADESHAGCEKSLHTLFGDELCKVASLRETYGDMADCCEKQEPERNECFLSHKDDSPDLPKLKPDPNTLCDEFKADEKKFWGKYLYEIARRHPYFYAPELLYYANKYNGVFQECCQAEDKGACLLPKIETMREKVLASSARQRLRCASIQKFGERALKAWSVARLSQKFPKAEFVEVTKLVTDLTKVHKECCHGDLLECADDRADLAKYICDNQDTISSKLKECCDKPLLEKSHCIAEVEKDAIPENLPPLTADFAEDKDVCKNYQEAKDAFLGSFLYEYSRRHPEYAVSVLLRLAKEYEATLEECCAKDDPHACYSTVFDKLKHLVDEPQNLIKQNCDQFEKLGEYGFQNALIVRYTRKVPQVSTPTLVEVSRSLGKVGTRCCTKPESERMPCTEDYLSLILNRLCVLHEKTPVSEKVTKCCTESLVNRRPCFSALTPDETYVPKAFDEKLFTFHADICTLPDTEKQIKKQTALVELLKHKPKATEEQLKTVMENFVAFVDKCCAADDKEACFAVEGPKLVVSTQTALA

What was measured:
HER2 on SK-BR-3 cells = HER2 on SK-BR-3 cells (UniProt P04626); assay: flow cytometry on cells; details: weak binding to HER2-negative MDA-MB-231 and MCF-7, Hanks buffer (SELEX binding buffer with 0.1 mg/mL salmon sperm DNA and 1 mg/mL BSA), 37 C, 30 min, pH not stated, aptamer pool heated 95 C 5 min then iced in SELEX, protein on the cell surface, single-stranded DNA
trypsin = assay: flow cytometry on protein-coated beads; details: Hanks buffer (SELEX binding buffer with 0.1 mg/mL salmon sperm DNA and 1 mg/mL BSA), 37 C, 30 min; pH not stated; aptamer pool heated 95 C 5 min then iced in SELEX; commercial protein; protein details: coated on magnetic beads; single-stranded DNA
[1] = target: bovine serum albumin (BSA) (bovine) (UniProt P02769); assay: flow cytometry on protein-coated beads; details: Hanks buffer (SELEX binding buffer with 0.1 mg/mL salmon sperm DNA and 1 mg/mL BSA), 37 C, 30 min; pH not stated; aptamer pool heated 95 C 5 min then iced in SELEX; commercial protein; protein details: coated on magnetic beads; single-stranded DNA

AACCGCCCAAATCCCTAAGAGTCTGCACTTGTCATTTTGTATATGTATTTGGTTTTTGGCTCTCACAGACACACTACACACGCACA [HB5]
binding result (HER2 on SK-BR-3 cells): binds
binding result (trypsin): binds more weakly
binding result [1]: binds more weakly
